Results reported in US10493131B2, “Materials and methods for modulating activity of bone marrow derived cells” (University of Florida Research Foundation, Incorporated, priority 2011, dated 2019).
At least one compound was matched to its structure with a doubt left.

System: CD34+ BMDEC
Experiment: Detection of nitric oxide (NO) produced by cells (DAF-FM fluorescence)
Assay type: cell-based, human
Settings: pretreatment with LY294002 10 μM 30 minutes; 100 ng/ml rhRLX
Experimental: Isolation of CD34+ BMDEC. The study protocol was approved by the Institutional Review Board of the University of Florida, and written informed consent was obtained from each subject. Blood was collected from healthy controls by routine venipuncture into CPT™ Tubes with heparin (BD Biosciences, Franklin Lakes, N.J.), centrifuged at room temperature in a swinging bucket rotor for 20 minutes at 1800 RCF, the peripheral blood mononuclear cells (PBMCs) diluted with phosphate buffered saline supplemented with 2 mM EDTA (PBSE) and centrifuged for 10 minutes at 300 RCF. After washing the cell pellet, centrifugation was repeated. […]
Detection of Nitric Oxide (NO) produced by cells. […] Bioavailable NO was determined as previously described (Shah, R., Beem, E., Sautina, L., Zharikov, S. I., and Segal, M. S. 2007. Mitomycin- and calcineurin-associated HUS, endothelial dysfunction and endothelial repair: a new paradigm for the puzzle? Nephrol Dial Transplant 22:617-620). […] DAF-FM fluorescence increases by about 160-fold when it reacts with NO. Green fluorescence was measured using the inverted fluorescent Carl Zeiss Axiovert 200M microscope equipped with a CCD camera and Slidebook software (v.4.1; Intelligent Imaging Innovations, Inc. Denver, Colo.). Fluorescence intensity was measured in 20-30 cells per field in at least 6 fields per well. […]

O=c1cc(N2CCOCC2)oc2c(-c3ccccc3)cccc12 [LY294002]
effect on rhRLX-stimulated increase in NO: blocked
